Data published in publication PMC8313550.
No constants are given. Whether binding was seen depends on the method and setting. In cells and extracts the contact can be indirect. Some binding calls cover weakened binding; strength is not graded here. Sequences can lack the tags named with a protein.

Sequences of proteins named here, by UniProt entry; tags and fusion partners are left off.
UniProt Q04206: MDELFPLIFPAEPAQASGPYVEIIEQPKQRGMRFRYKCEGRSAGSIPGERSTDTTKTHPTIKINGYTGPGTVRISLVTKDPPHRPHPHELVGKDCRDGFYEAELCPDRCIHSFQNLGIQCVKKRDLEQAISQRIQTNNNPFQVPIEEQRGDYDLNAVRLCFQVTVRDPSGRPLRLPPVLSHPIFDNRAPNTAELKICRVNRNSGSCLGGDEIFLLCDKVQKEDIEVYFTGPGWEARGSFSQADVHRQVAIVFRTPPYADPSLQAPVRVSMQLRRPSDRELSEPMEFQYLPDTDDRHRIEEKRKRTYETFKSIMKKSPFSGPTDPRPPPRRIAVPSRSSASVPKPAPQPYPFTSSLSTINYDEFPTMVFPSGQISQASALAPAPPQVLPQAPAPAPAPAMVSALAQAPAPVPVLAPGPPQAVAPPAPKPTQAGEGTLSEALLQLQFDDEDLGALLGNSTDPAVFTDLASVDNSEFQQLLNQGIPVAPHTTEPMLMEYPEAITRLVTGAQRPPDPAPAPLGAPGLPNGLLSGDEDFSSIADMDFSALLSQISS

Target: T1, iASPP(295–828)-v5 (UniProt Q8WUF5)
T1 sequence: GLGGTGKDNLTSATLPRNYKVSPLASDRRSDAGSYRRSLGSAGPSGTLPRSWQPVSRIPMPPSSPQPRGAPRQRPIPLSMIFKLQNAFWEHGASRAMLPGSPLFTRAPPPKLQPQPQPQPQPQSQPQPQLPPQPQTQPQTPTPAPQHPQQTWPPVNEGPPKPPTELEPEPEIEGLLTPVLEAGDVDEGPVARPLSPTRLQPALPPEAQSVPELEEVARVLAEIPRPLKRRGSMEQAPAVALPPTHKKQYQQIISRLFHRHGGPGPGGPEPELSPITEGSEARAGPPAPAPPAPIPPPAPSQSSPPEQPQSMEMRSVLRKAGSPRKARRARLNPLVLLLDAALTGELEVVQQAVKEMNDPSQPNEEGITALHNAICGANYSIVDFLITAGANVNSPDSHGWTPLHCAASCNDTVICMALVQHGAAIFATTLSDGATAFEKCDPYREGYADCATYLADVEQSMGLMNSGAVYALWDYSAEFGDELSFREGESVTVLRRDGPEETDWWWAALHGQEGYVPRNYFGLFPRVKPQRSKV
Assay: co-IP; in vitro translated proteins diluted in PBS; similar levels of p53-myc or NF-κBp65-myc mixed with the same amount of iASPP-v5; precipitated with anti-v5, co-precipitate detected with anti-myc by western blot

- binding: binds
Substance: NF-κBp65-myc (from UniProt Q04206 1-551)
